Source: paper PMC5159797
These are yes or no findings as the source states them, for the method shown. In cells and extracts the contact can be indirect. For some assays here: Where a sequence is shown, tags or fusion partners need not be part of it. Blank lines part the entries; values can stand above or below the binder they belong to.

Experiments:
[1] = biological target: T1, SKAP (small kinetochore-associated protein), endogenous (human (endogenous in HeLa)) (UniProt Q9Y448); assay: co-IP; HeLa cell lysates (synchronized in mitosis; also unsynchronized, prometaphase or metaphase) incubated with SKAP rabbit IgG pre-bound to Protein A/G-agarose, control IgG; Western blot
T1 sequence: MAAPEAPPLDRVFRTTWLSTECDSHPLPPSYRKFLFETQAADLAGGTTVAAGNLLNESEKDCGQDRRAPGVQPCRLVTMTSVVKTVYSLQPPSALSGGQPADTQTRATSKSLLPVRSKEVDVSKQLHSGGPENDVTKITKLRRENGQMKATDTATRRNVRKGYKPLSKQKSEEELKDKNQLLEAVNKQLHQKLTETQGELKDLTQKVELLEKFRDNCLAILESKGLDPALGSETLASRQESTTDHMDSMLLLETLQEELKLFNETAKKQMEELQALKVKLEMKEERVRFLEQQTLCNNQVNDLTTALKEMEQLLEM

GST-SKAP = biological target: T2, GST-SKAP (UniProt Q9Y448); assay: pull-down; GST fusion protein-bound sepharose beads incubated 2 h at 4 °C with HEK293T cell lysates containing GFP-tagged proteins; PBS, 0.1% Triton X-100; anti-GFP blot; only the target purified
T2 sequence: T1 sequence

binding [1]: no binding
B1: Kif2c (MCAK), endogenous (protein, UniProt Q99661 1-725)
chain: MAMDSSLQARLFPGLAIKIQRSNGLIHSANVRTVNLEKSCVSVEWAEGGATKGKEIDFDDVAAINPELLQLLPLHPKDNLPLQENVTIQKQKRRSVNSKIPAPKESLRSRSTRMSTVSELRITAQENDMEVELPAAANSRKQFSVPPAPTRPSCPAVAEIPLRMVSEEMEEQVHSIRGSSSANPVNSVRRKSCLVKEVEKMKNKREEKKAQNSEMRMKRAQEYDSSFPNWEFARMIKEFRATLECHPLTMTDPIEEHRICVCVRKRPLNKQELAKKEIDVISIPSKCLLLVHEPKLKVDLTKYLENQAFCFDFAFDETASNEVVYRFTARPLVQTIFEGGKATCFAYGQTGSGKTHTMGGDLSGKAQNASKGIYAMASRDVFLLKNQPCYRKLGLEVYVTFFEIYNGKLFDLLNKKAKLRVLEDGKQQVQVVGLQEHLVNSADDVIKMIDMGSACRTSGQTFANSNSSRSHACFQIILRAKGRMHGKFSLVDLAGNERGADTSSADRQTRMEGAEINKSLLALKECIRALGQNKAHTPFRESKLTQVLRDSFIGENSRTCMIATISPGISSCEYTLNTLRYADRVKELSPHSGPSGEQLIQMETEEMEACSNGALIPGNLSKEEEELSSQMSSFNEAMTQIRELEEKAMEELKEIIQQGPDWLELSEMTEQPDYDLETFVNKAESALAQQAKHFSALRDVIKALRLAMQLEEQASRQISSKKRPQ

binding (GST-SKAP): no binding
B2: GFP-Kif2c (protein, UniProt Q99661 1-725)
chain: B1 chain
